At least one structure is not confirmed: it was looked up by name or label, or the drawing left a doubt.
Test: Single stage methanol extraction of vegetable oils, partition coefficient
Assay type: physicochemical
Details: Rapeseed Oil, 0.39 multiplied with 3
Protocol: First methanol was tested for its efficiency in extracting of α-tocopherol and FFA from three vegetable oils. 200-300 ml of oil was mixed with the solvent using a magnetic stirrer at 35° C. The mixture is gravity separated and the oil stayed at the bottom. Partition coefficients of α-tocopherol and FFA were obtained by measuring the concentration of both compounds in the extract and the bottom fraction without evaporation of the solvent. The partition coefficient is calculated as follows: PC=(concentration in the extract)/(concentration in the bottom fraction).

Cc1c(C)c2c(c(C)c1O)CC[C@@](C)(CCC[C@H](C)CCC[C@H](C)CCCC(C)C)O2 [α-tocopherol]
tocopherol in the extract versus the oil fraction (mass balance): 1.17:1
